## Screening data

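Genome-wide siRNA knockdown in TC32 Ewing sarcoma cells, comparing luciferase light from an NR0B1-promoter reporter with a CMV-promoter reporter 48 hours after transfection.
Each siRNA was applied at 20 nM.
A z-score of the log NR0B1-over-CMV signal, less the median of siRNAs with the same seed; more negative means a stronger specific loss of the NR0B1 reporter.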

This is part of the screen; most of the strongest results are not listed here.
Sequences are the guide (antisense) strand, without overhang.

| siRNA | gene | seed-corrected z-score |
|---|---|---|
| `UGCUUUUCCAGGUUGCGUC` | LOC401286 | 2.304 |
| `UCUACUCCUCUUAUCAUUU` | TCEAL8 | 0.2305 |
| `UUUGGUUUUAGAUCAUUUG` | IKBIP | -0.3986 |
| `UUUUGAGAAAGGCUGAAGU` | MRPL9 | 1.059 |
| `UACGUGAUACAGGAUACUG` | HORMAD1 | -0.4201 |
| `UAACGAAGAAGGCAUCUGC` | ABCG2 | -0.7742 |
| `UAUCCACUAAACACCACAC` | TNFRSF14 | 0.7379 |
| `CAGGGCACUUUGAAUGUCC` | OR7E24 | 0.6826 |
| `AUACGUGAUCUCAUAAGCC` | LAMC3 | -1.139 |
| `UCCCUUGUCACUUGGGCUC` | MESP1 | 0.7884 |
| `AAUUGUUACAUACAUAGGG` | ZNF124 | 0.2171 |
| `UUACUGUCUUGCGUCUGGG` | RBMX2 | -0.103 |
| `UUAAUCUAUUCUGUGACUC` | KLRA1P | -0.0517 |
| `UACUGGUCUAGGAUGUGAG` | CBS | 0.04876 |
| `UUGGUUGCAAGCAAGCACC` | TMEM229B | -0.08743 |
| `AGAGCUUUUAUGUGGAUCU` | TAS2R20 | 0.3408 |
| `UUGGGUUAAGCUUCGUAAG` | TNS3 | 1.472 |
| `UGCGUGUACGGAAUCAUCG` | MYOM2 | -0.168 |
| `UAUCAAUCAGAUUAAACUC` | MOB1A | 0.6588 |
| `AAUCGGCCCAUGAUGUAGC` | FOXS1 | 0.5913 |
| `AAUGAUAUCAAUGCCUCGG` | TRAF3IP2 | -1.298 |
| `UAUCAUUGUAUGUGACUCC` | TMPRSS11B | -0.6422 |
| `UCAGGGUCAAAAUACGCAC` | CILP2 | 1.085 |
| `UACUCUCUAAUACACGCUG` | GPD2 | -0.3105 |
| `UUUAGUUCAGCUAGUGUGC` | BUB1B | -0.6966 |
| `UCUUCUACUCGGUUCAGGC` | KCNQ1 | -0.4121 |
| `UCUUCCUCUACCUUAAAGG` | NPM3 | -0.06747 |
| `UUUCUUCCACUUCGCAUUC` | WFDC6 | -0.9008 |
| `AAACAGAAUACAAAAUUCC` | MKNK2 | 0.2317 |
| `UUUCUAUUCUCAAUUAACC` | ACTG1 | 1.567 |
| `UUCGUUCACAGUGAACGUG` | HECW2 | 0.9313 |
| `UCAUGAAAUAUUGAGAACC` | PRR15 | 0.4111 |
| `UUCUCGCAAAGAAUCCAUC` | QSOX1 | -0.5431 |
| `UCGAUGUCUAUAGUGGGCC` | C1QTNF8 | -1.153 |
| `UACGUAGAGGAAAAUUCCC` | TMEM67 | 0.03564 |
| `UUCUGCAUGGUAAUUUUCU` | KRT15 | 1.363 |
| `UCCUUGUUAAUAUAUAUGU` | TMEM220 | 0.3696 |
| `UGCUUUUCCGCUUUGCCGG` | LOC401218 | 2.325 |
| `UUUUCUUGGAAAUCUCUGC` | GPR32 | 0.6031 |
| `UACAUGAAUCGAUUUAUCC` | VILL | 0.8495 |
| `GCUGGAAUGACGUAGUCGG` | P2RX5 | -0.1055 |
| `UGUAGUACCCACAACUUCU` | PMEL | -0.3199 |
| `UAACUUCUCGUCACGGACC` | RAB4A | -0.9819 |

Some entries from above, unchanged:

siRNA,gene,seed-corrected z-score
UUUAGUUCAGCUAGUGUGC,BUB1B,-0.6966
UUAAUCUAUUCUGUGACUC,KLRA1P,-0.0517
UCCUUGUUAAUAUAUAUGU,TMEM220,0.3696
UAUCCACUAAACACCACAC,TNFRSF14,0.7379
UAACGAAGAAGGCAUCUGC,ABCG2,-0.7742

The results are deposited in PubChem (AID1159506; NCATS, 2015).